The list shows a part of the results.
Legend:
Assay in all cases: log2 fold change, soluble protein after heating vs DMSO (PISA); higher = thermal stabilisation; K562 lysate, 10 uM; active = over 0.2 and 3.5 SD of the protein, either way, in both replicates (recomputed)
ibrutinib = compound: C=CC(=O)N1CCC[C@@H](n2nc(-c3ccc(Oc4ccccc4)cc3)c3c(N)ncnc32)C1 [ibrutinib]
Procedure, shortened: (§1)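 The values are log-two fold changes in thermal stability compared with solvent controls and come from duplicates. They were obtained by TMTpro 16plex LC-MS/MS, with channel sums equalised, on the supernatant after 21,000xg for 90 min. That supernatant came from crude K562 extract at 1 mg/mL protein treated with 10 μM compound for 30 min, heated for 3 min across 48°C-58°C, pooled and brought to 0.5% NP-40 at 4°C.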

Protein sequences, listed by entry. Tags and fused reporters are not part of them. Lines headed by an entry give the natural chain unless they say otherwise; changes in a name come on top.
UniProt Q9BQ24: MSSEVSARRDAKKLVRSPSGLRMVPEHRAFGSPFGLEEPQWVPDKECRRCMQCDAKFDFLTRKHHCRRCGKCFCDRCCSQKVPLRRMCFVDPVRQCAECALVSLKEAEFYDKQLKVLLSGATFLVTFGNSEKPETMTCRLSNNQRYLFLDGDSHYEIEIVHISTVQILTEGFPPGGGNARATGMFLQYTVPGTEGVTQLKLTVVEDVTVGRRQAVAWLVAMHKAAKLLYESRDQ
UniProt O15156: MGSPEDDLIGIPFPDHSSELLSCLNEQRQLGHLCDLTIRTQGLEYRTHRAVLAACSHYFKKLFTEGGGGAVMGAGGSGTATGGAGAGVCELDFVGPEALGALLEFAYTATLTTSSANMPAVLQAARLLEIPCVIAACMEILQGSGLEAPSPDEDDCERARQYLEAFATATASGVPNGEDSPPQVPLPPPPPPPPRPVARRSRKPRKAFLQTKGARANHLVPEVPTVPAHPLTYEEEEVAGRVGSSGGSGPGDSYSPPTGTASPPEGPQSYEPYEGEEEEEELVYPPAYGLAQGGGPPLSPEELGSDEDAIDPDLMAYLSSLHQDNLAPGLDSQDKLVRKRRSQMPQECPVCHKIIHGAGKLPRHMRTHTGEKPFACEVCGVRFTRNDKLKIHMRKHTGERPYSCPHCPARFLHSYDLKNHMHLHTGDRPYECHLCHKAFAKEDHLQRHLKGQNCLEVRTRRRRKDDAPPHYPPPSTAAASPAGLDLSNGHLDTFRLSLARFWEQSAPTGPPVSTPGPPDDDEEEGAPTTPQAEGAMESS
UniProt Q9Y548: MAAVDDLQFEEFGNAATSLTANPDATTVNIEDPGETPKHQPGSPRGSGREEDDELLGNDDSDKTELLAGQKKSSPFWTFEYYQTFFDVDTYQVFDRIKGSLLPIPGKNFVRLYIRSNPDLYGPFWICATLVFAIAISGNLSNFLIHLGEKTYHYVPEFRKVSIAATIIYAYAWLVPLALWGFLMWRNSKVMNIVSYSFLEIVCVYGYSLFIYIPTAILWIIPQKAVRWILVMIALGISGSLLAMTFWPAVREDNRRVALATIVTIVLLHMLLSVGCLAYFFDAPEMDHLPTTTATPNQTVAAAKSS
UniProt Q13105: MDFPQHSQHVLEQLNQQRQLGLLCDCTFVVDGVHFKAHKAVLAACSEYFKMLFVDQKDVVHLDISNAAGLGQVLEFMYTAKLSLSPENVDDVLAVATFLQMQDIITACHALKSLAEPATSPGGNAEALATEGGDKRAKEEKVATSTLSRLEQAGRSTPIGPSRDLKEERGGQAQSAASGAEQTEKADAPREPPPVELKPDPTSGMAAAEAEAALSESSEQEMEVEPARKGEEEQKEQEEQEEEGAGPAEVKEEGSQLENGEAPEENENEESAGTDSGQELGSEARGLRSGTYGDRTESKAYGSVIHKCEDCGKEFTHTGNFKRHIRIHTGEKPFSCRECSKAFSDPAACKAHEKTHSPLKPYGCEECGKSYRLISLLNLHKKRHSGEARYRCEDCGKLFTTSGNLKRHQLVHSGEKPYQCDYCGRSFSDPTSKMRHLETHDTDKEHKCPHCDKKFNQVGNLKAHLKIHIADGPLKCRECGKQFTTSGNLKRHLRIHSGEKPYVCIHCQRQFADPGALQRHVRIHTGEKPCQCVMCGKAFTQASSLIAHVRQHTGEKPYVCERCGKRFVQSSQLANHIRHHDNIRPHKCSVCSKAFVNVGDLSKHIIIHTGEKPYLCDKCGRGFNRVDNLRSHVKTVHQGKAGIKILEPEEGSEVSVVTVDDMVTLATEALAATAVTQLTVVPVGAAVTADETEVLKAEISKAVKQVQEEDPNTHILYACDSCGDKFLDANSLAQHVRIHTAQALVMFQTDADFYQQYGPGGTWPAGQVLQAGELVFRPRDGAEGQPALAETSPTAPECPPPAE
UniProt Q96K21: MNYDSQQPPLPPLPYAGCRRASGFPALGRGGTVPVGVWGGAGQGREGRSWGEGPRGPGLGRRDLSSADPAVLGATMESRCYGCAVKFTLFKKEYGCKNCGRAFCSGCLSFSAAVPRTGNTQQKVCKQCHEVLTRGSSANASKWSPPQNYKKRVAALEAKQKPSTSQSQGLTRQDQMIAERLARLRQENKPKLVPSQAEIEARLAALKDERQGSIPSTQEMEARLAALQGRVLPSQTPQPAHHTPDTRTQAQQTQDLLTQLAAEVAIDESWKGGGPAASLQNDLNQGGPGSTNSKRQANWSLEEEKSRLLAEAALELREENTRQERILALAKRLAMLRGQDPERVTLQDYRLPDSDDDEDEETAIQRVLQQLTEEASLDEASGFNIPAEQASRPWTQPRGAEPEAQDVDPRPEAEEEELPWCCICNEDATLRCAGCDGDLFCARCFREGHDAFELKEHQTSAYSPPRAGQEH
UniProt Q8NCN2: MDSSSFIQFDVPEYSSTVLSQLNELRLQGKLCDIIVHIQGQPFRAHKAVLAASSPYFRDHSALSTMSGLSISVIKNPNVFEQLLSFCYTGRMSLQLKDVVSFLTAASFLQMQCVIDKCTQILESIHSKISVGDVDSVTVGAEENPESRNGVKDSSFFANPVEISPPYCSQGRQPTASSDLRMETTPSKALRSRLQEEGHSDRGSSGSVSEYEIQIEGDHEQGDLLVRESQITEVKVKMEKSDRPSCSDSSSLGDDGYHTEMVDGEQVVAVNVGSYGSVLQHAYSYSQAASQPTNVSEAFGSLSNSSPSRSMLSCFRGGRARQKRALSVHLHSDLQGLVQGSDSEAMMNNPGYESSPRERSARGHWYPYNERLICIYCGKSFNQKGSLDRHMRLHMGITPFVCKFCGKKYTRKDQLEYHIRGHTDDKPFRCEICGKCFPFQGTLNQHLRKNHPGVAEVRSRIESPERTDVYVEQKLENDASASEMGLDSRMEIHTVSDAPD
UniProt Q8TCF1: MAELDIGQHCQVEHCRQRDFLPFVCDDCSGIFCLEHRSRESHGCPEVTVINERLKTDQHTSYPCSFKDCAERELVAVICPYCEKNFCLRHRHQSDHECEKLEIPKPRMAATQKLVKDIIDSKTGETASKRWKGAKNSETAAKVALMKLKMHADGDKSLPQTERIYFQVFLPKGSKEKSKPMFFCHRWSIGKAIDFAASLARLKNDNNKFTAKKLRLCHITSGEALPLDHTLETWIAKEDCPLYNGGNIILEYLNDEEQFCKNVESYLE
UniProt Q9Y2T7, whole entry, looked up: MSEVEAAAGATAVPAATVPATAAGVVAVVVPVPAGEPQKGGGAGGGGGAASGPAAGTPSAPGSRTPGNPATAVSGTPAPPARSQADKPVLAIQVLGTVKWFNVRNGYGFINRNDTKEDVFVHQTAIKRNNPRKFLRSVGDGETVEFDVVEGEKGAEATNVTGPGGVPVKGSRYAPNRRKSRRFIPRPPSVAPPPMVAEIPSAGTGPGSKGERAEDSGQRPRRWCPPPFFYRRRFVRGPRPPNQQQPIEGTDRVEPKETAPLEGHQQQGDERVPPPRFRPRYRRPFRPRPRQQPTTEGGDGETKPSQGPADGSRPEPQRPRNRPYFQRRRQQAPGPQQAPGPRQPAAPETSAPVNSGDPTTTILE
UniProt P37275: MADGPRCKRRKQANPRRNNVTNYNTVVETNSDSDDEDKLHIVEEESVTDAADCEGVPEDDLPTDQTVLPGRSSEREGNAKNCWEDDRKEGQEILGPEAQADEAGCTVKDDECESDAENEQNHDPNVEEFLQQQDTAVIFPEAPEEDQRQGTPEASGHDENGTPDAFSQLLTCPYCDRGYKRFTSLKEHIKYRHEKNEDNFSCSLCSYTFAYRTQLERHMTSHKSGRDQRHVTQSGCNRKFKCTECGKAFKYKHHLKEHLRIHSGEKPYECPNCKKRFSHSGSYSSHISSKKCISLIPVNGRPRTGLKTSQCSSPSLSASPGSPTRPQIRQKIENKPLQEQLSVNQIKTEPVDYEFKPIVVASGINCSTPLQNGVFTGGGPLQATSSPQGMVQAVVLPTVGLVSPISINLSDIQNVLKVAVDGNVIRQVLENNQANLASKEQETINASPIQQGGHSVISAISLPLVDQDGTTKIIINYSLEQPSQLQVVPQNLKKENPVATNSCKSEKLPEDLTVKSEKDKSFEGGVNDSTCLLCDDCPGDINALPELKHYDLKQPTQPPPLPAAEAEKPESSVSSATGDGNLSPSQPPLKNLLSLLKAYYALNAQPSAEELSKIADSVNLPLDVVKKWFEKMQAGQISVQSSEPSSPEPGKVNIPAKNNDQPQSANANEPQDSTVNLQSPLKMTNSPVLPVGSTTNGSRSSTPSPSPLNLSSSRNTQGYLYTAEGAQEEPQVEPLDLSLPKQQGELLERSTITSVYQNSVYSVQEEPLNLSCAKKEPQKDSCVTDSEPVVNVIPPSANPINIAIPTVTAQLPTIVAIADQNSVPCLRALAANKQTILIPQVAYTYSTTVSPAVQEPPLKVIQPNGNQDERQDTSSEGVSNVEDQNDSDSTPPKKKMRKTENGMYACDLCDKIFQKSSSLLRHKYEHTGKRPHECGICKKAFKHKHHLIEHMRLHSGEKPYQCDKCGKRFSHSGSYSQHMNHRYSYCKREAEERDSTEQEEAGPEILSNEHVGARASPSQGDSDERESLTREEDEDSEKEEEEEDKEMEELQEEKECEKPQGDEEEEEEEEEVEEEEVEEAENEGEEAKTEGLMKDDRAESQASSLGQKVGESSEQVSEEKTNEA
UniProt O43542: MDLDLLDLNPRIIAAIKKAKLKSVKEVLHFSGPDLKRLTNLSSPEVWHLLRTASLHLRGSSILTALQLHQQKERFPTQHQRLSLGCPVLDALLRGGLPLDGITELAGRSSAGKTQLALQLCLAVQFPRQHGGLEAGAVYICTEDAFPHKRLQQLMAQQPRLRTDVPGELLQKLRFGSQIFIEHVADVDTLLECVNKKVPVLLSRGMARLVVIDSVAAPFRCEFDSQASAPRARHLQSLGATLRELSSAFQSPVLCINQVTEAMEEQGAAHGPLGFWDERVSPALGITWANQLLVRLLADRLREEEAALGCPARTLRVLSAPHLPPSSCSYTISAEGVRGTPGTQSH
UniProt Q9NRH1: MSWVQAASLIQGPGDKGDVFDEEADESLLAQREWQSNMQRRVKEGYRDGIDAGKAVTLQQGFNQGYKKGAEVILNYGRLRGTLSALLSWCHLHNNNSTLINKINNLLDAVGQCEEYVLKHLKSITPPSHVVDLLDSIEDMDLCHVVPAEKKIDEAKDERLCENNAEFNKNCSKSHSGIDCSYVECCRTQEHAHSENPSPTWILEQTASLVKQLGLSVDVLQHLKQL
UniProt Q96DT7: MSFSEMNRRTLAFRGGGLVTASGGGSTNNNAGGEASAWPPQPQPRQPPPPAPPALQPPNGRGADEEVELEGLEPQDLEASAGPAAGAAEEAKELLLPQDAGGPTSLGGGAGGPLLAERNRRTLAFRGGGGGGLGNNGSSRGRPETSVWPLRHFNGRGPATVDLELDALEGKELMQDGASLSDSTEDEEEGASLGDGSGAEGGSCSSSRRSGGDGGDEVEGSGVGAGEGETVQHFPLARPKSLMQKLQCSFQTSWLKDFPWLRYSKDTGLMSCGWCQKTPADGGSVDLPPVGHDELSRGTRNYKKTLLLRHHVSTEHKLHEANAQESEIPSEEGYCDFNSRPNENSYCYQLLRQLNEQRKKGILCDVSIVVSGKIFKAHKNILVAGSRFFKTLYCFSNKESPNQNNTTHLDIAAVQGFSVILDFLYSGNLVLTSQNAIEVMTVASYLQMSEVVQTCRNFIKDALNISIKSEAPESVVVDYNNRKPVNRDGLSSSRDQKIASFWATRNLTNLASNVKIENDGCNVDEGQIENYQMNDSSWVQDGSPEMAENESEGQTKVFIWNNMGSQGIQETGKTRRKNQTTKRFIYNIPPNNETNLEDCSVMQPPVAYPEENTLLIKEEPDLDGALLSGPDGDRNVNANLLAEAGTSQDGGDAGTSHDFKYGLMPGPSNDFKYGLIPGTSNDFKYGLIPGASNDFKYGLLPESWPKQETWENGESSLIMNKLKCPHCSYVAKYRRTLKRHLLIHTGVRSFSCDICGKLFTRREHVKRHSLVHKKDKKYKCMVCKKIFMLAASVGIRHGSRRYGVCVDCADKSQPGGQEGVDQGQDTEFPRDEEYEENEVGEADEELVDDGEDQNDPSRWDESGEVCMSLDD
UniProt Q8TBK6: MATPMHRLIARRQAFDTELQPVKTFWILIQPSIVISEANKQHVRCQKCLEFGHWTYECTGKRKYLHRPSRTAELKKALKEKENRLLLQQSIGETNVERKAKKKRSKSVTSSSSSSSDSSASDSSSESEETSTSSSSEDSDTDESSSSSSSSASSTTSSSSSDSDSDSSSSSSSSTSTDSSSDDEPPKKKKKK
UniProt Q8IY57: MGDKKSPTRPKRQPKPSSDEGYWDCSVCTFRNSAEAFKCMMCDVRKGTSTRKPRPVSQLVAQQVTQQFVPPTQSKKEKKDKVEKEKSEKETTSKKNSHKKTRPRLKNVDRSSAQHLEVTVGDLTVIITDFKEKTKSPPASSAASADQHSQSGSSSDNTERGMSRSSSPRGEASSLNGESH

[1] = compound: CC(=O)c1cnc2ccc(-c3cc(Cl)c(O)c(Cl)c3)nc2c1N[C@H]1CC[C@H](CN(C)C)CC1
Procedure, shortened: as §1

[2] = compound: CC1=C(C2=C(C=C1)C(=O)C3=CC=CC=C3N2CCCN)C
Procedure, shortened: as §1

[3] = compound: CC1=C(C=C(C=C1)NC(=O)C2=CC(=CC=C2)C(C)(C)C#N)NC3=CC4=C(C=C3)N=CN(C4=O)C
Procedure, shortened: as §1

[4] = compound: CC1=CC=C(C=C1)SC2=C3C=C(SC3=CN=C2)C(=O)N
Procedure, shortened: as §1

vemurafenib = compound: CCCS(=O)(=O)Nc1ccc(F)c(C(=O)c2c[nH]c3ncc(-c4ccc(Cl)cc4)cc23)c1F [vemurafenib]
Procedure, shortened: as §1

[5] = compound: CCCS(=O)(=O)Nc1ccc(F)c(C(=O)c2c[nH]c3ncc(Cl)cc23)c1F
Procedure, shortened: as §1

barasertib = compound: CCN(CCCOc1ccc2c(Nc3cc(CC(=O)Nc4cccc(F)c4)[nH]n3)ncnc2c1)CCOP(=O)(O)O [barasertib]
Procedure, shortened: as §1

[6] = compound: CC[C@@H]1C(=O)N(C)c2cnc(Nc3ccc(C(=O)NC4CCN(C)CC4)cc3OC)nc2N1C1CCCC1
Procedure, shortened: as §1

volasertib = compound: CC[C@@H]1C(=O)N(C)c2cnc(Nc3ccc(C(=O)N[C@H]4CC[C@H](N5CCN(CC6CC6)CC5)CC4)cc3OC)nc2N1C(C)C [volasertib]
Procedure, shortened: as §1

[7] = compound: CCn1cc(-c2ccnc3[nH]c(-c4cccc(CN(C)C)c4)cc23)c(-c2ccc(NC(=O)N(C)C)cc2)n1
Procedure, shortened: as §1

[8] = compound: CN1CCC(CNc2ccc3ncc(-c4cccc(OC(F)(F)F)c4)n3n2)CC1
Procedure, shortened: as §1

saracatinib = compound: CN1CCN(CCOc2cc(OC3CCOCC3)c3c(Nc4c(Cl)ccc5c4OCO5)ncnc3c2)CC1 [saracatinib]
Procedure, shortened: as §1

sotrastaurin = compound: CN1CCN(c2nc(C3=C(c4c[nH]c5ccccc45)C(=O)NC3=O)c3ccccc3n2)CC1 [sotrastaurin]
Procedure, shortened: as §1

ralimetinib = compound: CC(C)(C)Cn1c(N)nc2ccc(-c3[nH]c(C(C)(C)C)nc3-c3ccc(F)cc3)nc21 [ralimetinib]
Procedure, shortened: as §1

[9] = compound: CC(C)(O)CC(=O)NCCn1ccc2ncnc(Nc3ccc(Oc4cccc(C(F)(F)F)c4)c(Cl)c3)c21
Procedure, shortened: as §1

[10] = compound: CC1=C(C(CC(=O)N1)C2=CC=C(C=C2)C(F)(F)F)C(=O)NC3=C(C=C4C(=C3)C=NN4)F
Procedure, shortened: as §1

[11] = compound: CC1=C(C=C(C=C1)NC(=O)C2=CC(=CC=C2)N(C)C)NC(=O)C3=CC=C(C=C3)O
Procedure, shortened: as §1

[12] = compound: CCn1c(C(=O)N(C2CC2)C2CC2)cc2c3c(ncn3C)c(Nc3cc(C)n(C)n3)nc21
Procedure, shortened: as §1

[13] = compound: CC(C)C1=C2N=C(C=C(N2N=C1)NCC3=CC=CC=C3)NCCCCCCN
Procedure, shortened: as §1

Measured: log2 fold change

ZDHHC20 (UniProt Q5W0Z9)
inactive: ibrutinib -0.033 | [1] -0.021 | [2] 0.009 | [3] 0.083 | [4] 0.05 | vemurafenib 0.015 | [5] 0.007 | barasertib 0.169 | [6] -0.006 | volasertib -0.046 | [7] 0.067 | [8] -0.02 | saracatinib -0.003 | sotrastaurin 0.076

ZFYVE21 isoform 2 (UniProt Q9BQ24)
inactive: ibrutinib -0.069 | [1] -0.273 | ralimetinib 0.123 | [9] 0.109 | [10] -0.039 | [2] -0.043 | [3] 0.012 | [11] -0.092 | [4] -0.109 | vemurafenib 0 | [5] -0.024 | barasertib 0.024 | [6] 0.053 | volasertib -0.239 | [12] -0.11 | [7] -0.009 | [8] 0.023 | saracatinib 0.056 | sotrastaurin 0.036

ZBTB7B isoform 2 (UniProt O15156)
inactive: ibrutinib 0.123 | [2] -0.368 | [3] 0.046 | barasertib -0.157 | saracatinib -0.099 | sotrastaurin 0.015

YIPF1 (UniProt Q9Y548)
inactive: ibrutinib 0.05 | [1] 0.011 | [10] -0.06 | [2] -0.064 | [3] 0.071 | [4] 0.006 | [5] -0.028 | barasertib -0.06 | volasertib -0.039 | saracatinib -0.002 | sotrastaurin 0.004

ZBTB17 isoform 2 (UniProt Q13105)
inactive: ibrutinib 0.025 | [1] 0.011 | [13] -0.015 | [2] -0.063 | [3] 0.099 | [4] -0.021 | [5] -0.029 | barasertib 0.011 | volasertib 0.035 | saracatinib 0.066 | sotrastaurin -0.144

ZFYVE19 isoform 3 (UniProt Q96K21)
inactive: ibrutinib 0.085 | [1] -0.084 | [4] 0.047 | [5] 0.048 | barasertib -0.037 | volasertib -0.231

ZFP36L2 (UniProt P47974)
inactive: ibrutinib 0.049 | ralimetinib -0.251 | [9] 0.157 | [10] -0.001 | [2] -0.11 | [3] 0.002 | [11] -0.161 | vemurafenib 0.025 | barasertib 0.086 | [6] 0.03 | [12] 0.173 | [7] 0 | [8] -0.098 | saracatinib -0.01 | sotrastaurin -0.006

ZBTB34 (UniProt Q8NCN2)
inactive: ibrutinib 0.297 | [1] 0.071 | ralimetinib 0.081 | [9] -0.042 | [2] 0.018 | [11] 0.093 | [4] -0.096 | [5] 0.106 | barasertib 0.358 | volasertib -0.006 | [12] 0.111 | saracatinib -0.063

ZC3H12C isoform 2 (UniProt Q9C0D7)
inactive: ibrutinib 0.047 | [1] 0.189 | ralimetinib -0.022 | [9] 0.007 | [13] 0.004 | [2] 0.124 | [3] -0.011 | [11] -0.073 | [4] -0.021 | [5] -0.138 | barasertib 0.106 | volasertib -0.09 | [12] 0.148 | [7] -0.013 | [8] 0.139 | saracatinib -0.17 | sotrastaurin -0.012

ZFAND1 (UniProt Q8TCF1)
inactive: ibrutinib 0.041 | ralimetinib 0.003 | [9] 0.128 | [2] -0.06 | [3] -0.051 | [11] -0.001 | barasertib -0.309 | [6] 0.063 | [12] -0.021 | [7] 0.417 | [8] -0.293 | saracatinib -0.018 | sotrastaurin -0.038

YBX2 (UniProt Q9Y2T7)
inactive: ibrutinib -0.042 | barasertib 0.001

ZFYVE27 isoform 2 (UniProt Q5T4F4)
inactive: ibrutinib 0.098 | [1] -0.012 | ralimetinib -0.034 | [9] -0.047 | [13] 0 | [2] 0.016 | [3] -0.056 | [11] 0.038 | [4] 0.008 | vemurafenib 0.004 | [5] 0.102 | barasertib 0.016 | [6] -0.068 | volasertib -0.001 | [12] -0.041 | saracatinib 0.109 | sotrastaurin 0.061

ZFP64 isoform 5 (UniProt Q9NTW7)
inactive: ibrutinib 0.084 | [1] 0.017 | ralimetinib -0.033 | [9] -0.059 | [3] 0.028 | [11] 0.083 | [4] 0.145 | [5] 0.113 | barasertib 0.01 | [6] 0.023 | volasertib 0.179 | [12] 0.062 | [7] -0.086 | [8] 0.179 | sotrastaurin -0.113

ZEB1 isoform 2 (UniProt P37275)
inactive: ibrutinib -0.14 | [1] 0.005 | ralimetinib 0.116 | [9] -0.024 | [13] -0.052 | [2] -0.055 | [3] 0.034 | [11] -0.088 | [4] -0.019 | vemurafenib 0.029 | [5] 0.058 | barasertib 0.245 | volasertib 0.009 | [12] 0.047 | [7] -0.015 | [8] -0.201 | saracatinib 0.115 | sotrastaurin 0.084

YTHDC1 (UniProt Q96MU7)
inactive: ibrutinib -0.019 | [1] 0.068 | [10] 0.2 | [2] 0.164 | [3] 0.107 | [4] -0.028 | vemurafenib 0.006 | [5] -0.002 | barasertib -0.063 | [6] 0.085 | volasertib -0.029 | [7] -0.013 | [8] 0.025 | saracatinib 0.086 | sotrastaurin -0.067

XRCC3 (UniProt O43542)
inactive: ibrutinib 0.154 | ralimetinib 0.026 | [9] 0.005 | [13] 0.041 | [10] 0.049 | [2] 0.008 | [3] -0.004 | [11] -0.025 | vemurafenib 0.032 | barasertib 0.012 | [12] 0.109 | [7] 0.029 | [8] 0.044 | saracatinib 0.025 | sotrastaurin 0.052

YAE1 (UniProt Q9NRH1)
inactive: ibrutinib -0.007 | ralimetinib -0.051 | [9] -0.133 | [13] -0.075 | [10] 0.05 | [2] -0.006 | [3] 0.047 | [11] 0.074 | vemurafenib 0.029 | barasertib 0.097 | [6] 0.017 | [12] -0.021 | [7] 0.022 | [8] 0.069 | saracatinib -0.017 | sotrastaurin 0.038

ZBTB10 (UniProt Q96DT7)
inactive: ibrutinib 0.181 | [1] 0.002 | ralimetinib -0.01 | [9] -0.047 | [13] 0.027 | [2] -0.012 | [3] 0.009 | [11] -0.03 | [4] 0.011 | vemurafenib -0.006 | [5] -0.084 | barasertib 0.132 | [6] 0.065 | volasertib -0.015 | [12] -0.008 | [7] -0.023 | [8] -0.063 | saracatinib 0.119 | sotrastaurin 0.07

YWHAZ (UniProt E7ESK7)
inactive: ibrutinib 0.116 | [1] -0.003 | [13] 0.161 | [2] -0.121 | [3] 0.039 | [4] -0.056 | vemurafenib -0.095 | [5] 0.034 | barasertib 0.146 | [6] 0.134 | volasertib 0.061 | [7] 0.114 | [8] 0.134 | saracatinib -0.018 | sotrastaurin -0.118

Reprinted at random: 2 entries already listed
YTHDC1 (UniProt Q96MU7)
inactive: ibrutinib -0.019 | [1] 0.068 | [10] 0.2 | [2] 0.164 | [3] 0.107 | [4] -0.028 | vemurafenib 0.006 | [5] -0.002 | barasertib -0.063 | [6] 0.085 | volasertib -0.029 | [7] -0.013 | [8] 0.025 | saracatinib 0.086 | sotrastaurin -0.067

XRCC3 (UniProt O43542)
inactive: ibrutinib 0.154 | ralimetinib 0.026 | [9] 0.005 | [13] 0.041 | [10] 0.049 | [2] 0.008 | [3] -0.004 | [11] -0.025 | vemurafenib 0.032 | barasertib 0.012 | [12] 0.109 | [7] 0.029 | [8] 0.044 | saracatinib 0.025 | sotrastaurin 0.052

Later entries.

ZCCHC10 (UniProt Q8TBK6)
inactive: ibrutinib 0.068 | ralimetinib -0.061 | [9] 0.202 | [2] 0.017 | [3] 0.052 | [11] -0.161 | barasertib -0.056 | [6] -0.363 | [12] 0.099 | saracatinib -0.078 | sotrastaurin 0.03

YAF2 isoform 5 (UniProt Q8IY57)
inactive: ibrutinib 0.147 | [1] 0.055 | ralimetinib -0.056 | [9] 0.035 | [13] -0.102 | [2] 0 | [3] -0.028 | [11] 0.068 | [4] -0.052 | vemurafenib 0.171 | [5] 0.011 | barasertib -0.009 | [6] 0.147 | volasertib 0.03 | [12] 0.061 | [7] 0.102 | [8] -0.072 | saracatinib 0.021 | sotrastaurin 0.013
